Taken from: PubChem BioAssay AID1259308 (NCATS, 2017)
The deposit covers about 59,000 reagents; below is a part drawn at random. About 1,510 of them (2.6%) count as active. 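Calls use total luciferase alone and ignore viability, so some active siRNAs may act by altering cell number.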 The numbers tell different reagents against one gene apart. Further read-outs or replicates are left out here.

- Test: 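Genes whose loss raises luciferase production in HEK293 cells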 (primary screen)
- Cells: human HEK293 embryonic kidney cells stably expressing firefly luciferase (HEK-CMV-Luc2-Hygro)
- Knock-down reagent: single siRNA against human genes, 0.8 pmol siRNA per well
- Timing: 72 h
- Measured: 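Reporter luminescence and viable-cell signal on separate replicate plates, given as percent of non-targeting control and median/MAD z-scores, plus per-cell luciferase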
- Scale: total luciferase, z-score and total luciferase, % of control: higher = more reporter protein produced
- Hit rule: 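Active when the median/MAD z-score for overall luciferase is greater than 3; a gene was taken forward for validation with new siRNAs if at least two of its three siRNAs passed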
- Meaning of the calls: active = raised luciferase; inactive = no rise

LHFPL5 #1 showed total luciferase, z-score 0.185; total luciferase, % of control 85.6; inactive.
For LHFPL5 #2 the deposit lists total luciferase, z-score 1.91; total luciferase, % of control 120; inactive.
LHFPL5 #3 showed total luciferase, z-score 0.213; total luciferase, % of control 86.1; inactive.
Depletion of FBXO38 #1 resulted in: total luciferase, z-score 0.768; total luciferase, % of control 97.2; inactive.
FBXO38 #2 gave total luciferase, z-score 1.27; total luciferase, % of control 107; inactive.
Silencing of FBXO38 #3 resulted in: total luciferase, z-score -0.674; total luciferase, % of control 68.5; inactive.
For EFCAB12 #1 the deposit lists total luciferase, z-score 0.168; total luciferase, % of control 85.2; inactive.
EFCAB12 #2 scored total luciferase, z-score 1.44; total luciferase, % of control 110; inactive.
Knock-down of EFCAB12 #3 resulted in: total luciferase, z-score -2.32; total luciferase, % of control 35.7; inactive.
For TRIM50 #1, the values are total luciferase, z-score 0.00314; total luciferase, % of control 81.9; inactive.
For TRIM50 #2, the entry reads total luciferase, z-score -0.0705; total luciferase, % of control 80.5; inactive.
TRIM50 #3 scored total luciferase, z-score 0.122; total luciferase, % of control 84.3; inactive.
Depletion of SUSD2P1 #1 came out at: total luciferase, z-score 0.678; total luciferase, % of control 95.4; inactive.
Knock-down of SUSD2P1 #2 came out at: total luciferase, z-score 0.0239; total luciferase, % of control 82.4; inactive.
Knock-down of SUSD2P1 #3 resulted in: total luciferase, z-score -1.28; total luciferase, % of control 56.3; inactive.
Depletion of AGPAT1 #1 came out at: total luciferase, z-score -1.66; total luciferase, % of control 48.9; inactive.
Silencing of AGPAT1 #2 came out at: total luciferase, z-score -1.68; total luciferase, % of control 48.4; inactive.
For AGPAT1 #3, the entry reads total luciferase, z-score -1.07; total luciferase, % of control 60.5; inactive.
For MUC6 #1 the deposit lists total luciferase, z-score -0.328; total luciferase, % of control 75.4; inactive.
With knock-down of MUC6 #2 the results were total luciferase, z-score 0.869; total luciferase, % of control 99.2; inactive.
MUC6 #3 scored total luciferase, z-score -0.173; total luciferase, % of control 78.4; inactive.
For RPS15AP25 #1, the values are total luciferase, z-score 0.763; total luciferase, % of control 97.1; inactive.
Knock-down of RPS15AP25 #2 resulted in: total luciferase, z-score -0.712; total luciferase, % of control 67.7; inactive.
With knock-down of RPS15AP25 #3, the screen gave total luciferase, z-score 0.0928; total luciferase, % of control 83.7; inactive.
With knock-down of APOBEC3B #1, the screen gave total luciferase, z-score -0.654; total luciferase, % of control 68.9; inactive.
Against APOBEC3B #2, the values are total luciferase, z-score 2.82; total luciferase, % of control 138; inactive.
APOBEC3B #3 showed total luciferase, z-score -0.0541; total luciferase, % of control 80.8; inactive.
With knock-down of IL13RA2 #1, the record shows total luciferase, z-score -0.311; total luciferase, % of control 75.7; inactive.
With knock-down of IL13RA2 #2, the record shows total luciferase, z-score -0.492; total luciferase, % of control 72.1; inactive.
Against IL13RA2 #3, the entry reads total luciferase, z-score -0.19; total luciferase, % of control 78.1; inactive.
For LOC440313 #1 the deposit lists total luciferase, z-score 1.01; total luciferase, % of control 102; inactive.
Depletion of LOC440313 #2 came out at: total luciferase, z-score 0.843; total luciferase, % of control 98.7; inactive.
LOC440313 #3 showed total luciferase, z-score -0.42; total luciferase, % of control 73.5; inactive.
Against LONP2 #1, the values are total luciferase, z-score -0.219; total luciferase, % of control 77.5; inactive.
For LONP2 #2, the entry reads total luciferase, z-score 0.347; total luciferase, % of control 88.8; inactive.
After knock-down of LONP2 #3, the record shows total luciferase, z-score 0.741; total luciferase, % of control 96.6; inactive.
Against CAPZBP1 #1 the deposit lists total luciferase, z-score 0.0942; total luciferase, % of control 83.8; inactive.
Silencing of CAPZBP1 #2 gave: total luciferase, z-score 1.73; total luciferase, % of control 116; inactive.
Silencing of CAPZBP1 #3 came out at: total luciferase, z-score -2.44; total luciferase, % of control 33.3; inactive.
MLYCD #1 scored total luciferase, z-score -1.55; total luciferase, % of control 51.1; inactive.
With knock-down of MLYCD #2, the record shows total luciferase, z-score 1.26; total luciferase, % of control 107; inactive.
After knock-down of MLYCD #3, the screen gave total luciferase, z-score 0.197; total luciferase, % of control 85.8; inactive.

4 entries from above, sorted by “total luciferase, % of control”, low to high.
AGPAT1 #2: total luciferase, z-score = -1.68; total luciferase, % of control = 48.4; outcome = inactive
AGPAT1 #1: total luciferase, z-score = -1.66; total luciferase, % of control = 48.9; outcome = inactive
AGPAT1 #3: total luciferase, z-score = -1.07; total luciferase, % of control = 60.5; outcome = inactive
MUC6 #1: total luciferase, z-score = -0.328; total luciferase, % of control = 75.4; outcome = inactive
